Experimental findings from PubChem BioAssay AID493014 (National Center for Advancing Translational Sciences (NCATS), 2011) are described below.

SMILES strings stand for the structures. The list shows a part of the results. These are further read-outs of the screen, such as a control signal, another cell line or another target. No call is given for them. The list favours compounds with an active or inconclusive main result. Words in brackets tell the shape of the fitted curve; partial curves, single points and poor fits give uncertain potencies.

This experiment in a line: qHTS Assay to Find Inhibitors of Chronic Active B-Cell Receptor Signaling. The conditions noted are these: ABC-DLBCL IkBa-CBG/CBR reporter, luminescence ratio (green luciferase fused to IkBa over red control in TMD8 lymphoma cells), 4 h. The method in brief:
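Concentration-response series (up to 46 uM) were applied to TMD8 dual-reporter cells for 4 h at 37C with doxycycline. Green/red ratio, after filter-overlap correction, defined %Activity; red signal alone was normalised to basal cells and zero luminescence.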
(In qHTS, concentration-response curves come from the screen itself.)

Setting [1] is: measured here: CBR red luminescence, cell number.
[2] abbreviates: measured here: IkBa-CBG green luminescence.

In the case of `OCC(Cc1ccccc1)Nc1c2ccccc2nc2ccccc12` (configuration not stated), the AC50 under setting [1] is 29.1 µM [falling, single point]. In the case of `Cc1cccc(NC(=O)c2cc(S(=O)(=O)NCc3ccco3)ccc2F)c1C`, the AC50 under setting [1] is 17.8 µM [falling, single point]. Take `COc1ccc(-c2nnc(SCC(=O)Nc3cc(C)on3)o2)cc1`: the AC50 under setting [2] was 22.4 µM [falling, single point]. Take `COc1cc(/C=N/N=C2/NC(=O)C(Cc3ccc(F)cc3)S2)ccc1O` (configuration not stated): the AC50 under setting [1] was 2.82 µM [falling, partial curve]. As for `Cc1ccc2c(C)nc(Nc3nc(CSc4nc5ccccc5[nH]4)cc(=O)[nH]3)nc2c1`, under setting [1], the AC50 was 2.24 µM [falling, full curve, poor fit]. Turning to `CC1=CC(C)C2C(=O)N(CCCN(C)C)C(=O)C2C1` (configuration not stated), under setting [1], the AC50 was 4.61 µM [rising, full curve, poor fit]. Regarding `C[C@H](C(=O)CC(=O)OC(C)(C)C)[C@H](O)c1ccc(C(F)(F)F)cc1`, under setting [1], the AC50 was 6.31 µM [falling, single point].

Turning to `CCn1cc(C(=O)N2CCN(c3cccc(Cl)c3)CC2)c2cc(OC)c(OC)cc2c1=O`, the AC50 under setting [1] is 20.6 µM [falling, single point]. As for `Cc1cc(C)c(C#N)c(N2CCSCC2)n1`, the AC50 under setting [1] was 31.6 µM [rising, single point]. Take `O=C(CN1CCCc2ccccc21)N/N=C/c1ccc(F)cc1F`: the AC50 under setting [1] is 11.2 µM [falling, partial curve, poor fit]. As to `CN(C)S(=O)(=O)Oc1cccc(C(=O)Nc2cccc(Cl)c2)c1`, under setting [1], the AC50 was 25.1 µM [falling, single point]. Regarding `N#CC1(NC(=O)CN2c3cccc4cccc(c34)S2(=O)=O)CCCCC1`, the AC50 under setting [1] is 16.4 µM [rising, partial curve, poor fit]. Consider `CCOC(=O)c1ccc(NC(=O)CSc2nc(C)nc3c2c(=O)n(C)c(=O)n3C)cc1`, for which, under setting [1], the AC50 is 32.6 µM [rising, single point]. Same read-out and setting: as for `CSS(=O)(=O)c1cccc2cccnc12`, the figure is 35.5 µM [falling, single point]. For the molecule `Cc1cccc(N/N=C/c2ccc(O)c(O)c2O)c1`, the AC50 is 1.78 µM [rising, partial curve, poor fit] under setting [1] and 25.1 µM [rising, partial curve, poor fit] under setting [2]. Consider `O=C(COc1ccc(/C=N/NC(=O)c2ccccc2)cc1)Nc1ccc([N+](=O)[O-])cc1`, for which the AC50 under setting [1] was 35.5 µM [falling, partial curve, poor fit].

In the case of `COc1cccc(-c2cc3onc(-c4ccccc4)c3c(=O)n2C)c1`, the AC50 under setting [1] was 23.1 µM [falling, single point]. As for `COCCNC(=O)CSc1nc2cc(OC)c(OC)cc2c(=O)n1Cc1ccco1`, the AC50 under setting [1] is 0.708 µM [falling, full curve]. Still for that read-out and setting: for `O=C(CNC(=O)c1ccco1)OCc1ccc(Cl)cc1` the value was 4.11 µM [rising, single point]; for `CC1CCOC2(O1)C(=O)N(CN1CCN(c3cccc(Cl)c3)CC1)c1ccccc12` (configuration not stated), 6.31 µM [rising, single point]; for `COc1ccc(OCc2cc(C(=O)N[C@H]3CCCCNC3=O)no2)c(Cl)c1`, 35.5 µM [rising, single point]. For `CC1=NN(c2nc3ccccc3[nH]2)C(=O)/C1=C/N(C)C`, under setting [1], the AC50 is 3.55 µM [falling, full curve]. Consider `NNC(=S)NCCc1ccccc1`, for which the AC50 under setting [1] is 17.8 µM [falling, partial curve, poor fit]. On the same count and under the same terms, for `O=C1Nc2ccccc2/C1=C/C(=O)c1cccs1` the value was 11.6 µM [falling, partial curve]. Consider `COC(=O)CN(c1ccccc1F)S(=O)(=O)c1ccc(C)cc1`, for which the AC50 under setting [1] is 11.2 µM [rising, partial curve, poor fit]. Same read-out and setting: for `O=C(COc1ccccc1Cl)Nc1ccc(N2CCCC2)cc1` the value was 2.51 µM [rising, full curve].

As to `Cc1cc(C)c(O)c(-c2cc(C(=O)Nc3ccc(S(=O)(=O)N4CCOCC4)cc3)[nH]n2)c1`, the AC50 under setting [1] was 2.91 µM [falling, partial curve, poor fit]. For the molecule `COc1cccc(-c2noc(N)c2C#N)c1`, the AC50 under setting [1] was 0.891 µM [falling, full curve, poor fit].

Regarding `O=C(c1ccc(Cl)nc1)N1CCN(C/C=C/c2ccccc2)CC1`, under setting [1], the AC50 is 31.6 µM [rising, single point]. For `Cc1ccc(C2C(C#N)=C(N)Oc3cc(C)oc(=O)c32)o1` (configuration not stated), the AC50 is 11.2 µM [falling, partial curve, poor fit] under setting [1] and 12.6 µM [rising, partial curve, poor fit] under setting [2]. Turning to `Brc1ccc(C2=CC(c3cccs3)n3ncnc3N2)cc1` (configuration not stated), the AC50 under setting [1] was 4.47 µM [falling, partial curve]. Same read-out and setting: as for `CCOC(=O)c1sc(NC(=O)Cc2ccc(F)cc2)nc1C`, the figure is 0.316 µM [falling, full curve, poor fit]; as for `COCCOC(=O)CSc1ncccc1-c1nc2cc(C)c(C)cc2[nH]1`, 17.8 µM [falling, partial curve, poor fit]. Consider `C/C(Cn1cnc([N+](=O)[O-])n1)=N\NC(=O)c1cccc(F)c1`, for which the AC50 by setting is: under setting [1], 11.6 µM [falling, partial curve]; under setting [2], 32.6 µM [falling, partial curve, poor fit]. As for `CCOC(=O)N1CCN(C(=O)CSCc2ccc(Br)cc2)CC1`, the AC50 under setting [1] was 22.4 µM [falling, single point].

Take `COc1cc(/C=C/c2nc(-c3ccccc3O)n[nH]2)cc(OC)c1OC`: the AC50 under setting [1] was 20.6 µM [falling, partial curve, poor fit]. With `CCc1nc2ccccc2c(C(=O)Oc2cccc3cccnc23)c1C`, under setting [1], the AC50 was 2.82 µM [rising, partial curve, poor fit]. Same read-out and setting: for `CCN1CCCC1CN(Cc1cc2ccc(C)cc2[nH]c1=O)C(=S)Nc1ccccc1C(=O)OC` (configuration not stated) the value was 2.82 µM [falling, partial curve]; for `COc1c(/C=N/NC(=O)c2ccccc2O)c(CCN(C)C(C)=O)cc2c1OCO2`, 7.31 µM [falling, partial curve]; for `NS(=O)(=O)c1ccc(NC(=O)c2c(F)cccc2Cl)cc1`, 31.6 µM [rising, single point]. Still for that read-out and setting: as for `COC(=O)N/N=C/c1ccc(OS(=O)(=O)c2ccc(C)cc2)c(OC)c1`, the figure is 17.8 µM [falling, single point]. Take `CCn1c(SCc2nc3scc(-c4ccccc4)c3c(=O)[nH]2)nnc1-c1cccs1`: the AC50 under setting [1] was 32.6 µM [falling, single point].

`O=C(CCn1c(=O)c2ccccc2n(Cc2cccnc2)c1=O)NCc1ccc2c(c1)OCO2`: the AC50 under setting [1] was 29.1 µM [rising, single point]. As to `CCc1ccc2c(c1)cc(CN(Cc1ccco1)C(C)=O)c1nnnn12`, under setting [1], the half-maximal activity concentration (AC50) is 15.8 µM [rising, single point]. For `Cc1ccc(-c2csc(NC(=O)CCNC(=O)c3ccccc3Cl)n2)cc1`, the AC50 under setting [1] is 23.1 µM [falling, single point]. With `CC(=O)Nc1ccc(S(=O)(=O)N(C)CC(=O)OCC(=O)Nc2ccc3c(c2)OCO3)cc1`, the AC50 under setting [1] was 13 µM [rising, partial curve, poor fit]. On the same count and under the same terms, for `CCOc1cc(C2C(C#N)=C(N)Oc3cc(N)ccc32)ccc1O` (configuration not stated) the value was 35.5 µM [falling, single point]. Turning to `CC1CCN(c2ccc(NC(=O)c3ccccc3[N+](=O)[O-])cc2)CC1`, the AC50 under setting [1] was 3.98 µM [falling, full curve]. As for `CCOC(=O)NC(=O)CSc1nnnn1-c1ccc(C)cc1`, the AC50 under setting [1] is 16.4 µM [rising, single point].

As to `Cc1cc(Br)ccc1NCc1ccccn1`, the AC50 under setting [1] was 3.16 µM [rising, single point].

For `CCOc1ccc(Cl)cc1S(=O)(=O)N1CCN(c2ccc(C)c(C)c2)CC1`, the AC50 under setting [1] was 29.1 µM [rising, single point] and the AC50 under setting [2] is 23.1 µM [falling, partial curve, poor fit]. In the case of `CC1(C)OC(=O)CC1C(=O)NCc1ccccc1` (configuration not stated), the AC50 under setting [1] was 0.731 µM [rising, full curve, poor fit]. Take `COc1cccc2sc(N(CCCN(C)C)C(=O)C(c3ccccc3)c3ccccc3)nc12`: the AC50 under setting [1] is 7.08 µM [falling, full curve]. With `COc1ccc(C(=O)Nc2c(N)nc(SCC(=O)NCC3CCCO3)[nH]c2=O)cc1` (configuration not stated), the AC50 under setting [1] is 0.631 µM [falling, full curve, poor fit]. For the molecule `CC1CC(C)CN(C(=O)C(Cc2ccccc2)NC(=O)c2ccccc2)C1` (configuration not stated), under setting [1], the AC50 was 18.4 µM [falling, partial curve, poor fit]. Take `Cc1ccc(-n2ncc3c2CCCC3NC(=O)c2ocnc2C)cc1C` (configuration not stated): the AC50 under setting [1] was 1.26 µM [rising, full curve, poor fit]. Same read-out and setting: for `Nc1ncnc2c1ncn2[C@@H]1O[C@H](CNS(=O)(=O)c2ccc3c(c2)CCN(C(=O)C(F)(F)F)C3)[C@@H](O)[C@H]1O` the value was 23.1 µM [rising, single point]; for `O=C(O)CCC(=O)Nc1nc(-c2ccccc2)cs1`, 23.1 µM [falling, single point]. Consider `O=C(COC(=O)/C=C/c1ccco1)NCCc1ccccc1`, for which, under setting [1], the half-maximal activity concentration (AC50) is 11.2 µM [rising, partial curve, poor fit]. As to `Cc1csc2c(N(C)CCO)ncnc12`, the AC50 under setting [1] was 3.55 µM [rising, single point]. For the molecule `CC(=O)Nc1cccc(NC(=O)c2ccc3[nH]c(C)c(C)c3c2)c1`, the AC50 under setting [1] was 1 µM [falling, partial curve].

In the case of `O=C(CCc1nc2ccccc2[nH]1)Nc1ccc(F)cc1`, the AC50 under setting [1] was 32.6 µM [falling, partial curve, poor fit]. `Cc1nc2ccc(NC(=O)N3CCN(c4ccccn4)CC3)cc2s1`: under setting [1], the AC50 is 0.517 µM [falling, full curve, poor fit].

What is called AC50 is the midpoint of the concentration-response curve, whichever way the signal moves.
